From article PMC7199855, “GRAF2, WDR44, and MICAL1 mediate Rab8/10/11–dependent export of E-cadherin, MMP14, and CFTR ΔF508” (The Journal of Cell Biology, 2020)
Substitutions are numbered along the chain they refer to. These are yes or no findings as the source states them, for the method shown. For some of these results: Binding seen in cells or lysates may run through a third protein. Some results given as binding are weak or reduced against the parent protein; the word gives no strength. Tags and fused reporters may be left off the sequences shown. Blank lines part the entries; values can stand above or below the binder they belong to.

Amino acid sequences for entries named in this document (tags omitted). A change or cut given only in a name is not applied to a line headed by its entry.
UniProt P62491: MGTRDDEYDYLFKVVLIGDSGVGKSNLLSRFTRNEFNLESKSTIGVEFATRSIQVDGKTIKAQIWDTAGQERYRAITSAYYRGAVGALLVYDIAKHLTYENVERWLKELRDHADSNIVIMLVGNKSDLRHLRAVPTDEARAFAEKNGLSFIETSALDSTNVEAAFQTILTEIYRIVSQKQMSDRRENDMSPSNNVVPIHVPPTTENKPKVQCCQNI
UniProt O95292: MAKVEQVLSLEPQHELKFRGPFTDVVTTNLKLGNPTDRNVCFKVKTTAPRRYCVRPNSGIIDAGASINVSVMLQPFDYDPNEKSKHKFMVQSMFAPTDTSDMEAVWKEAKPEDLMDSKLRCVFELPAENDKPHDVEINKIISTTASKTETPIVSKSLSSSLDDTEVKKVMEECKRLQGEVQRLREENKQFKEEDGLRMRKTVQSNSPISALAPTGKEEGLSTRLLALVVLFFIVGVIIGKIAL
UniProt P61026: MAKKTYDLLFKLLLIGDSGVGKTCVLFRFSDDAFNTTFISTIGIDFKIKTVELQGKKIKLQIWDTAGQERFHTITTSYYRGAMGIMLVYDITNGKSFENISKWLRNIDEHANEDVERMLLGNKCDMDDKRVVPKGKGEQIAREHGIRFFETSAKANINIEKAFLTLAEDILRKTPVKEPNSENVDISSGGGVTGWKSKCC
UniProt P61007: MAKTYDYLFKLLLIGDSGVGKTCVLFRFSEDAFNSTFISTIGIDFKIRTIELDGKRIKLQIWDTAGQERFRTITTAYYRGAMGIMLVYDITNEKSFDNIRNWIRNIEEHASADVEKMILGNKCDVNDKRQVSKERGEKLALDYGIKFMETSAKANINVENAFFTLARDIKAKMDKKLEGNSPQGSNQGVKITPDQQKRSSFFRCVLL
UniProt Q92930: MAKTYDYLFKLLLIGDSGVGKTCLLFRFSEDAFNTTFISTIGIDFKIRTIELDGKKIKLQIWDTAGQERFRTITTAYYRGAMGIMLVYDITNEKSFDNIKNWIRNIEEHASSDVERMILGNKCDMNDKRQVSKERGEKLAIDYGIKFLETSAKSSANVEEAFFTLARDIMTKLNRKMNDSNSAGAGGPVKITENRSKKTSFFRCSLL

What was measured:
GST–MICAL1 ΔN (human) = biological target: T1, GST–MICAL1 ΔN (human) (UniProt Q8TDZ2); experiment: pull-down; in vitro: GST-tagged WDR44 or MICAL1 domains on glutathione sepharose beads with an equal amount of Thrombin-released GRAF2 SH3, 30 min 4°C, washed in bacterial lysis buffer (20 mM Hepes pH 7.4, 1 mM DTT, NaCl); Coomassie staining; both purified
T1 sequence: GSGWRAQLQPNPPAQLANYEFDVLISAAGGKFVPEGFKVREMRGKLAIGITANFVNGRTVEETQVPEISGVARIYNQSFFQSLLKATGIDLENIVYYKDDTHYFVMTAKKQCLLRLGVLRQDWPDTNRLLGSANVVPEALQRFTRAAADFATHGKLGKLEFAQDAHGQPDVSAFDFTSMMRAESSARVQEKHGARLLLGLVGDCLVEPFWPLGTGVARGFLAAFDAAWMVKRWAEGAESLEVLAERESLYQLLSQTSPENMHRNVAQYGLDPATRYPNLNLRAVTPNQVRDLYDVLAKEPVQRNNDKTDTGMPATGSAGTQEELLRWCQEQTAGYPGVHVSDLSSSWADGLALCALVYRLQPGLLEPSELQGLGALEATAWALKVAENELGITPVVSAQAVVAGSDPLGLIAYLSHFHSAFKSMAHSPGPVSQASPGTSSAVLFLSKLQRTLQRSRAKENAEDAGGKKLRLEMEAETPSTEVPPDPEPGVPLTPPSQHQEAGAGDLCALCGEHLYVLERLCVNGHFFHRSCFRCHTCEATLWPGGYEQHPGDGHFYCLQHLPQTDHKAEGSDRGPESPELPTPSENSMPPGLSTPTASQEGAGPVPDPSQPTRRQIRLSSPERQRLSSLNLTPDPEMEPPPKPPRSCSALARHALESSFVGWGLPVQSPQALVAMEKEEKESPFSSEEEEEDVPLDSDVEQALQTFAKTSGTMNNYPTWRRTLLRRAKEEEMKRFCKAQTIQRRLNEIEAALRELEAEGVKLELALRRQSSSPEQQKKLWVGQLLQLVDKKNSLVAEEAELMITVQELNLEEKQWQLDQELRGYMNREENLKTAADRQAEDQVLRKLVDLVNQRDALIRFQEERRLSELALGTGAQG

GFP-VAPA ΔMSP (human) = biological target: T2, GFP-VAPA ΔMSP (human) (UniProt Q9P0L0); experiment: co-IP; transfected 293T, IP with α-GFP and Protein G Sepharose; 20 mM Hepes pH 7.4, 150 mM NaCl, 2 mM EDTA, 1% IGEPAL CA-630; Western blot
T2 sequence: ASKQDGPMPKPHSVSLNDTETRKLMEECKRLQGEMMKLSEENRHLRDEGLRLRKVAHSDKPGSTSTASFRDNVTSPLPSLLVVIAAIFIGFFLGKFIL

GFP-Rab11a Q70L (human) = GFP-Rab11a Q70L (human) (UniProt P62491); experiment: as above
GRAF1b-GFP (human) = biological target: T3, GRAF1b-GFP (human) (UniProt Q9UNA1); experiment: as above
T3 sequence: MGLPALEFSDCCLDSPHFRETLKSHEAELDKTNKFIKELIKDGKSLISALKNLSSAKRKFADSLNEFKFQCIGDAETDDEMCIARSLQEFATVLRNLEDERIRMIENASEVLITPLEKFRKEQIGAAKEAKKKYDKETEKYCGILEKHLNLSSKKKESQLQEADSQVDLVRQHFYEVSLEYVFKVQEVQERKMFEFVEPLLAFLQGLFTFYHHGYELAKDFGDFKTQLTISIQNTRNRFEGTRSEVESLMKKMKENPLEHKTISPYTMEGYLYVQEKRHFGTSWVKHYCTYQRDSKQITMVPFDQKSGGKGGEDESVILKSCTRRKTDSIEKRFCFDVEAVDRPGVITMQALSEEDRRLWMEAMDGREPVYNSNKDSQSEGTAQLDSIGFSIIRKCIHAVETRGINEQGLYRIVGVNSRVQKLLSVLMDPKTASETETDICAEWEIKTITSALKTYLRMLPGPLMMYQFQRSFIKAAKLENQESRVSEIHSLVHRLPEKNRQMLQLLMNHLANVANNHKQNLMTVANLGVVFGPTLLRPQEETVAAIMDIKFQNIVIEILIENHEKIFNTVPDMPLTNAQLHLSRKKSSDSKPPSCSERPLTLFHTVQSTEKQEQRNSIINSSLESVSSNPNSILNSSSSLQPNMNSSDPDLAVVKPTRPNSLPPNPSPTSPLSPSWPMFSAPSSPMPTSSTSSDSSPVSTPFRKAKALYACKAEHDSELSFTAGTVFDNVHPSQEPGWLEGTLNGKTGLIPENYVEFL

GFP-VAPA (human) = biological target: T4, GFP-VAPA (human) (UniProt Q9P0L0); experiment: as above
T4 sequence: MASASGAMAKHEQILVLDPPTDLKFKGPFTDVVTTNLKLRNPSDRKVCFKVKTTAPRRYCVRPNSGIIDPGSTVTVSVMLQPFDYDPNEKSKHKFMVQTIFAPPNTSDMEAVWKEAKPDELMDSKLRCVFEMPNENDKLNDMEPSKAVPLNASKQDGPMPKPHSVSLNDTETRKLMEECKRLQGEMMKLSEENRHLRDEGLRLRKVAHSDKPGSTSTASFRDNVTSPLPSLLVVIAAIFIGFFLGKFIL

GRAF2-GFP (human) = biological target: T5, GRAF2-GFP (human) (UniProt A1A4S6); experiment: as above
T5 sequence: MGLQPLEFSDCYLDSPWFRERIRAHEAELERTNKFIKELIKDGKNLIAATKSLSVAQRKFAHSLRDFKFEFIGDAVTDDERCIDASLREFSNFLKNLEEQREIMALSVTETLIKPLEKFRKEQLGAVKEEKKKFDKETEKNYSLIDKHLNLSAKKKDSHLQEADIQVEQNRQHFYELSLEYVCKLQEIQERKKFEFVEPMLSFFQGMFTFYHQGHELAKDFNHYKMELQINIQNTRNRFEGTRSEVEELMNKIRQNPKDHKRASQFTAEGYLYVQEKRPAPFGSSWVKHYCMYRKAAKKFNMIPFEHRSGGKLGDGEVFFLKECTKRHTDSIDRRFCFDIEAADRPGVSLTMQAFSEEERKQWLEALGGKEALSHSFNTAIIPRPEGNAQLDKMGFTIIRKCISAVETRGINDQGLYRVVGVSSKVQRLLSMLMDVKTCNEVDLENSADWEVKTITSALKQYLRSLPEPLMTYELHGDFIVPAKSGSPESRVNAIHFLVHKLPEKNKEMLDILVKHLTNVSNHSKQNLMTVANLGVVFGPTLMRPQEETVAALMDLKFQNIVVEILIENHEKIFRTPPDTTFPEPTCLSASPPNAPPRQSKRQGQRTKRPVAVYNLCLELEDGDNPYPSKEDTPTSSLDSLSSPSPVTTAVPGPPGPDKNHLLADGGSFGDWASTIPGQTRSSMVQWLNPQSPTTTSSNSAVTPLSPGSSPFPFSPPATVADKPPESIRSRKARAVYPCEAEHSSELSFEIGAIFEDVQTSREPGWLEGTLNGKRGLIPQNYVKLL

GFP-VAPB (human) = GFP-VAPB (human) (UniProt O95292); experiment: as above
GFP-Rab10 (human) = GFP-Rab10 (human) (UniProt P61026); experiment: as above
GFP-Rab8a (canine) = GFP-Rab8a (canine) (UniProt P61007); experiment: as above
GFP-Rab11a S25N (human) = GFP-Rab11a S25N (human) (UniProt P62491); experiment: as above
GFP-Rab8b (human) = GFP-Rab8b (human) (UniProt Q92930); experiment: as above
GFP-Rab11a (human) = GFP-Rab11a (human) (UniProt P62491); experiment: as above
GFP-VAPA DD (human) = biological target: T6, GFP-VAPA DD (human) (UniProt Q9P0L0); experiment: as above
T6 sequence: T4 sequence with K94D, M96D

binding (GST–MICAL1 ΔN (human)): no binding
B1: GRAF2 SH3 (released from GST by Thrombin) (domain or fragment, human, UniProt A1A4S6 718-786, looked up)
chain: ATVADKPPESIRSRKARAVYPCEAEHSSELSFEIGAIFEDVQTSREPGWLEGTLNGKRGLIPQNYVKLL
notes: SH3 domain construct, aa 718–786 of human GRAF2; same construct as m2 with GST cut off; source: E. coli BL21(DE3) pLysS; released from GST-GRAF2 SH3 beads with Thrombin; not shown: GST, N-terminal, cleaved

binding (GFP-VAPA ΔMSP (human)): no binding
binding (GFP-Rab11a Q70L (human)): binds
binding (GRAF1b-GFP (human)): binds
binding (GFP-VAPA (human)): binds
binding (GRAF2-GFP (human)): binds
binding (GFP-VAPB (human)): binds
binding (GFP-Rab10 (human)): no binding
binding (GFP-Rab8a (canine)): no binding
binding (GFP-Rab11a S25N (human)): no binding
binding (GFP-Rab8b (human)): no binding
binding (GFP-Rab11a (human)): binds
binding (GFP-VAPA DD (human)): no binding
B2: myc-WDR44 (protein, UniProt Q5JSH3 1-913)
chain: MASESDTEEFYDAPEDVHLGGGYPVGSPGKVGLSTFKETENTAYKVGNESPVQELKQDVSKKIIESIIEESQKVLQLEDDSLDSKGKELSDQATASPIVARTDLSNIPGLLAIDQVLPEESQKAESQNTFEETELELKKCFPSDETCEKPVDETTKLTQTSSTEQLNVLETETEVLNKEAVEVKGGGDVLEPVSSDSLSTKDFAAVEEVAPAKPPRHLTPEPDIVASTKKPVPARPPPPTNFPPPRPPPPSRPAPPPRKRKSELEFETLKTPDIDVPKENITSDSLLTASMASESTVKDSQPSLDLASATSGDKIVTAQENGKAPDGQTVAGEVMGPQRPRSNSGRELTDEEILASVMIKNLDTGEEIPLSLAEEKLPTGINPLTLHIMRRTKEYVSNDAAQSDDEEKLQSQPTDTDGGRLKQKTTQLKKFLGKSVKRAKHLAEEYGERAINKVKSVRDEVFHTDQDDPSSSDDEGMPYTRPVKFKAAHGFKGPYDFDQIKVVQDLSGEHMGAVWTMKFSHCGRLLASAGQDNVVRIWALKNAFDYFNNMRMKYNTEGRVSPSPSQESLSSSKSDTDTGVCSGTDEDPDDKNAPFRQRPFCKYKGHTADLLDLSWSKNYFLLSSSMDKTVRLWHISRRECLCCFQHIDFVTAIAFHPRDDRYFLSGSLDGKLRLWNIPDKKVALWNEVDGQTKLITAANFCQNGKYAVIGTYDGRCIFYDTEHLKYHTQIHVRSTRGRNKVGRKITGIEPLPGENKILVTSNDSRIRLYDLRDLSLSMKYKGYVNSSSQIKASFSHDFTYLVSGSEDKYVYIWSTYHDLSKFTSVRRDRNDFWEGIKAHNAVVTSAIFAPNPSLMLSLDVQSEKSEGNEKSEDAEVLDATPSGIMKTDNTEVLLSADFTGAIKVFVNKRKNVS
